Protein sequences, listed by entry. Tags and fused reporters are not part of them. Lines headed by an entry give the natural chain unless they say otherwise; changes in a name come on top.
UniProt P06855: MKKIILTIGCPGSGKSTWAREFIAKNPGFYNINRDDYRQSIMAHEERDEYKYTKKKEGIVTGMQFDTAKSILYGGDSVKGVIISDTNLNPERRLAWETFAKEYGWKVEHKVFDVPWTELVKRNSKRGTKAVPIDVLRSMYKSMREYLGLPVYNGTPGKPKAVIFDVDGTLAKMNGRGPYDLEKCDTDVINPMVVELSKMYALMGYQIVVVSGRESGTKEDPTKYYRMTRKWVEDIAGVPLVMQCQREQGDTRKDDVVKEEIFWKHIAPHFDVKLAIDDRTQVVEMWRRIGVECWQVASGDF

In US20030232342:

Target: T4 polynucleotide kinase (Enterobacteria phage T4) (UniProt P06855)
Assay: activity assay
Details: 5' phosphorylation, microwave 700 W 20-50 s; result in FIG. 4; protein details: Bangalore Genei; label: 32P; single-stranded DNA

CCCCGCCCCGCGCCCCGCCCCGCGCCCCGCCCCGCGCCCCGCCCCGCGCCCCGCCCCGCG [60-mer oligonucleotide (12-mer x5)]
activity on this sequence: active
